For experiment [1], the target named is rRNA methyltransferase NSUN4 (human (endogenous in HEK293T)) (UniProt Q96CB9). Nature of the experiment: cryo-EM structure; GTPBP5IP mt-LSU assembly intermediate: native complex from mitochondria of HEK293T cells expressing GTPBP5::FLAG, isolated on anti-FLAG M2 agarose and eluted with 3x FLAG peptide; 3.1 A reconstruction (3.2 A for the mtEF-Tu- and MTG1-containing particles).

By UniProt entry, the sequences of proteins in these tests, tags left out. Residues count along the entry.
UniProt Q96CB9, residues 26-384: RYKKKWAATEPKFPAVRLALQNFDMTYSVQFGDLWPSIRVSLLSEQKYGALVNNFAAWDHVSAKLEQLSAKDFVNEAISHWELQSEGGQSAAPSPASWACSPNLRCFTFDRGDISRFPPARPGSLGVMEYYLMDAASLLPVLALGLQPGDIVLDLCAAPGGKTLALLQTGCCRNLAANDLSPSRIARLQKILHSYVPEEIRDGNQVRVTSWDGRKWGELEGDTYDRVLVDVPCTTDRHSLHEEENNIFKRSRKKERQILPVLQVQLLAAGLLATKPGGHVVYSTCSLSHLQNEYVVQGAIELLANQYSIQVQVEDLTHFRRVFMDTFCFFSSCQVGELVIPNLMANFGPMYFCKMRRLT

Experiment [2] shares this target. Description: cryo-EM structure; GTPBP5KO mt-LSU assembly intermediate: native mt-LSU from mitochondria of GTPBP5 knock-out HEK293T cells, sucrose cushion and 15-30% sucrose gradient; 2.6 A reconstruction.

Results are given in words; binding and its absence hold for the method and conditions named. Some results given as binding are weak or reduced against the parent protein; the word gives no strength.

B1: mitochondrial transcription termination factor 4 (MTERF4) (protein, UniProt Q7Z6M4 43-381)
chain: LTTASNGGVIEELSCVRSNNYVQEPECRRNLVQCLLEKQGTPVVQGSLELERVMSSLLDMGFSNAHINELLSVRRGASLQQLLDIISEFILLGLNPEPVCVVLKKSPQLLKLPIMQMRKRSSYLQKLGLGEGKLKRVLYCCPEIFTMRQQDINDTVRLLKEKCLFTVQQVTKILHSCPSVLREDLGQLEYKFQYAYFRMGIKHPDIVKSEYLQYSLTKIKQRHIYLERLGRYQTPDKKGQTQIPNPLLKDILRVSEAEFLARTACTSVEEFQVFKKLLAREEEESESSTSDDKRASLDEDEDDDDEEDNDEDDNDEDDDDEDDDEAEDNDEDEDDDEEE
Regarding B1, the binding result in experiment [1] and in experiment [2] was “binds” in each case.

(Values after PMC8209036, “Structural basis for late maturation steps of the human mitoribosomal large subunit” (Nature Communications, 2021).)
